Results taken from publication PMC10488267.
The exact form of at least one protein or probe is not confirmed. Where cells or extracts were used, other partners may take part. Weaker means in comparison with the reference protein, sequence or condition of that experiment.

By UniProt entry, the sequences of proteins in these tests, tags left out.
UniProt Q15717, whole entry: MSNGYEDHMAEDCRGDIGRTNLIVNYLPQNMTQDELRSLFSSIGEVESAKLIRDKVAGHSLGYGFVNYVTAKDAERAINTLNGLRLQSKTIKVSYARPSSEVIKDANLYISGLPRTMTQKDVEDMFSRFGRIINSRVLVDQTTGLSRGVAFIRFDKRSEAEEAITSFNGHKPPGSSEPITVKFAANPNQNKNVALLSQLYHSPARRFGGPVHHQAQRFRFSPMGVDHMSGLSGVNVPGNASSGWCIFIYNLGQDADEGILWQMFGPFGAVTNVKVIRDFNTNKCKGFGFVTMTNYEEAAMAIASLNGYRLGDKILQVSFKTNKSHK

Target: HuR (UniProt Q15717)
Experiment: pull-down, western blot
Details: biotin-TEG at 5' end, RNA folded in 10 mM Tris pH 7, 10 mM MgCl2, 100 mM KCl, binding in Buffer D lysate (20 mM Tris pH 7.9, 20% glycerol, 0.1 M KCl, 0.2 mM EDTA, 0.5 mM DTT, RiboLock), protein in an extract, label: 5' biotin-TEG

## AUUUUUAUUUU [HuR-binding ARE motif RNA oligo]
100 µM STK018404 (dose-dependent decrease, Fig 4B)
  binding result: binds more weakly
100 µM STK217448 (no robust dose dependence)
  binding result: binds more weakly
100 µM Y044-6405 (no robust dose dependence)
  binding result: binds more weakly
No compound (positive control)
  binding result: binds
